Test results: publication PMC4589357, “The Role of Electrostatic Interactions in Binding of Histone H3K4me2/3 to the Sgf29 Tandem Tudor Domain” (PLoS ONE, 2015)
Results are given in words; binding and its absence hold for the method and conditions named. Where a sequence is shown, tags or fusion partners need not be part of it.

Target: T1, Sgf29 D266W variant, residues 115-293 (human, UniProt Q96ES7 115-293, D266W)
T1 construct: source: E. coli Rosetta BL21 DE3 PlysS, purified (Ni-NTA, TEV cleavage, SEC Superdex 75)
T1 sequence (looked up): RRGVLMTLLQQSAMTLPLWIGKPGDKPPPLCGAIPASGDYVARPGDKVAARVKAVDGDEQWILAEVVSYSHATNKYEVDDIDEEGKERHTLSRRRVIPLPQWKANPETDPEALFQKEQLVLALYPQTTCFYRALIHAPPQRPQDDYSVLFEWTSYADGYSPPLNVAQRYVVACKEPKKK
Assay: ITC; peptide (generally 1.2 mM) titrated to protein (100 uM); for variants of low affinity 2.4 mM peptide to 200 uM protein; 25 mM TRIS pH 8.0, 50 mM NaCl, 1 mM DTT; one-site model; both purified

B1: 10-mer histone 3 peptide H3K4me2 (ARTKme2QTARKS) (peptide)
peptide: ARTKQTARKS
modifications: dimethyllysine (Kme2) at position 4; carboxylic acid at the C terminus
Question: B1 was tested. Which binding did it give?
Answer: no binding (tested: K d > 200 μM)

B2: 10-mer histone 3 peptide H3K4me3 (ARTKme3QTARKS) (peptide)
peptide: ARTKQTARKS
modifications: trimethyllysine (Kme3) at position 4; carboxylic acid at the C terminus
Question: For B2, which binding is on record?
Answer: no binding (tested: K d > 200 μM)
